The test addresses Flag-mTNF-α (mouse) (UniProt P06804). Description: co-IP.

Sequences of proteins named here, by UniProt entry; tags and fusion partners are left off. A change or cut given only in a name is not applied to a line headed by its entry.
UniProt P06804: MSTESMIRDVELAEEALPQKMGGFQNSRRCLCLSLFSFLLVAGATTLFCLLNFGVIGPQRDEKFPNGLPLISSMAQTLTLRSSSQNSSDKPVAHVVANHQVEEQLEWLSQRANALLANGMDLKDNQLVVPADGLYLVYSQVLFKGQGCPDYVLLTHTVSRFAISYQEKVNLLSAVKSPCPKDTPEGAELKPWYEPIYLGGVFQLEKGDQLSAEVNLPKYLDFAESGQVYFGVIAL

These are yes or no findings as the source states them, for the method shown. Binding seen in cells or lysates may run through a third protein. Binding can be weak; no strength is given.

B1: TAK1 (protein, UniProt Q62073 1-579)
chain: MSTASAASSSSSSSASEMIEAPSQVLNFEEIDYKEIEVEEVVGRGAFGVVCKAKWRAKDVAIKQIESESERKAFIVELRQLSRVNHPNIVKLYGACLNPVCLVMEYAEGGSLYNVLHGAEPLPYYTAAHAMSWCLQCSQGVAYLHSMQPKALIHRDLKPPNLLLVAGGTVLKICDFGTACDIQTHMTNNKGSAAWMAPEVFEGSNYSEKCDVFSWGIILWEVITRRKPFDEIGGPAFRIMWAVHNGTRPPLIKNLPKPIESLMTRCWSKDPSQRPSMEEIVKIMTHLMRYFPGADEPLQYPCQYSDEGQSNSATSTGSFMDIASTNTSNKSDTNMEQVPATNDTIKRLESKLLKNQAKQQSESGRLSLGASRGSSVESLPPTSEGKRMSADMSEIEARIVATAGNGQPRRRSIQDLTVTGTEPGQVSSRSSSPSVRMITTSGPTSEKPARSHPWTPDDSTDTNGSDNSIPMAYLTLDHQLQPLAPCPNSKESMAVFEQHCKMAQEYMKVQTEIALLLQRKQELVAELDQDEKDQQNTSRLVQEHKKLLDENKSLSTYYQQCKKQLEVIRSQQQKRQGTS
Consider B1, for which the binding result is reported as “binds”.

(Values after doi:10.1101/2022.03.24.485557.)
